The target in this assay is endogenous PR (progesterone receptor) in T47D cells (human (endogenous in T47D)) (UniProt P06401). The assay is described as follows: proximity ligation; endogenous proteins in methanol-fixed T47D cells, anti-PR and anti-ERα-36 antibodies; control siRNA or siRNA against PR; 10 nM R5020 for the indicated times.

Chains of the proteins cited; added tags and fusions are not shown. Lines headed by an entry give the natural chain unless they say otherwise; changes in a name come on top. A line that says so, or that is headed by a name, gives the form on record, which may keep a tag or linker.
UniProt P06401: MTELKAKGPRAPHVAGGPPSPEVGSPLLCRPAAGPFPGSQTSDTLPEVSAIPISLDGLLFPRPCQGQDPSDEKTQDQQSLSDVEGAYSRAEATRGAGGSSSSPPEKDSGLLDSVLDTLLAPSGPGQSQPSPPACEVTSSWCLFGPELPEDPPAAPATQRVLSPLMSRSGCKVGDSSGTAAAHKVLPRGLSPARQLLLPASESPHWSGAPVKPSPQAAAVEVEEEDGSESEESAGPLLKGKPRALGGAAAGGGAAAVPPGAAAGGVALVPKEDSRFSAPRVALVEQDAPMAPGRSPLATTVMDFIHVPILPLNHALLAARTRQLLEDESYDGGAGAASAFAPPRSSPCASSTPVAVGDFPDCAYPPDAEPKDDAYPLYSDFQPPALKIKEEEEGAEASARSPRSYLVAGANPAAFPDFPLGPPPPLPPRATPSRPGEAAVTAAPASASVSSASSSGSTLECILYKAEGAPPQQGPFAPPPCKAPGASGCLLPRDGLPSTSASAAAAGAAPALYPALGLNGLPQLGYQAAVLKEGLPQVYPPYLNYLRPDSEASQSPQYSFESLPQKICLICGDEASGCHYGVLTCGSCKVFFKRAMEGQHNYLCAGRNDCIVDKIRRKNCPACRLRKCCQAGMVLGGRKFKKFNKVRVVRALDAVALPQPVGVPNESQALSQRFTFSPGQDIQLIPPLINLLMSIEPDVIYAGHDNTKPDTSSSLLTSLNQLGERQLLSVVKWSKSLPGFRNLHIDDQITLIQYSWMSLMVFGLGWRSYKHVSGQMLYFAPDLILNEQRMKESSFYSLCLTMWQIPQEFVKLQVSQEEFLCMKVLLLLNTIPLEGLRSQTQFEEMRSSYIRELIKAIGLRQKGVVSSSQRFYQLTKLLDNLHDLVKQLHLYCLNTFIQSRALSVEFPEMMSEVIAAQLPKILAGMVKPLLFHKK
endogenous ERα-36 in T47D cells (P03372-4, form named): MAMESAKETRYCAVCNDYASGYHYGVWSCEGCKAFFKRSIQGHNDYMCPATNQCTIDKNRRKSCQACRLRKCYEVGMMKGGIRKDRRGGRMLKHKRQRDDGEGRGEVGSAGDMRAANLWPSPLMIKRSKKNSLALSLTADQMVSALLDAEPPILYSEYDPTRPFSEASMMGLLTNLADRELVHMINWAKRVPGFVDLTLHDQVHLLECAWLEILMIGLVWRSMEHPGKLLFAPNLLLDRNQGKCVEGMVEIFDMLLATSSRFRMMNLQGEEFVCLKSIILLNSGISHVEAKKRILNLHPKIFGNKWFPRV

Results are given in words; binding and its absence hold for the method and conditions named. In cells and extracts the contact can be indirect. Some binding calls cover weakened binding; strength is not graded here.

For the substance “endogenous ERα-36 in T47D cells (from UniProt P03372-4 1-310)”, the binding result is “binds”.
